# Measurements reported in PubChem BioAssay AID1508597 (Cure First, 2020)
# Assay: 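Survival screen with siRNA in ovarian cancer cells derived from patients, with or without rucaparib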 (primary screen)
# System: human ovarian carcinoma lines grown from tumours: OCI-P5x (papillary serous) and OCI-C5x (clear cell)
# Knock-down reagent: siRNA pool against human genes, 1.25 pmol siRNA per well
# Time to read-out: 72 h or 96 h, depending on the cell culture
# Challenge: rucaparib 20 µM (about IC30) or vehicle, present until read-out
# Read-out: 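ATP luminescence measured at 72 or 96 h according to the culture, then normalised and expressed as percent viability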
# Scale: viability, normalised: higher = more viable cells remaining
# Hit rule: 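a well counts as a hit if its normalised viability is under 80 percent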
# Meaning of the calls: active = viability under 80%; inactive = viability 80% or more
# The deposit covers about 2,100 reagents; this is an unselected part. 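Calls flag viability under 80% in either arm, not effects specific to rucaparib; the reference for percent is not stated.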 A number with no mark means an inactive call. Not given: the 100% reference.
target,rucaparib or vehicle,cell line,technical replicate,"viability, normalised (%)"
ENPP3,Rucaparib,OCI-C5x (clear cell),1,55.9 (active)
ENPP3,Rucaparib,OCI-C5x (clear cell),2,55.8 (active)
ENPP3,Rucaparib,OCI-C5x (clear cell),3,48.1 (active)
ENPP3,Rucaparib,OCI-P5x (serous),1,86.2
ENPP3,Rucaparib,OCI-P5x (serous),2,55.8 (active)
ENPP3,Rucaparib,OCI-P5x (serous),3,79 (active)
ENPP3,Vehicle,OCI-C5x (clear cell),1,48.8 (active)
ENPP3,Vehicle,OCI-C5x (clear cell),2,56 (active)
ENPP3,Vehicle,OCI-C5x (clear cell),3,44 (active)
ENPP3,Vehicle,OCI-P5x (serous),1,65.8 (active)
ENPP3,Vehicle,OCI-P5x (serous),2,73.3 (active)
ENPP3,Vehicle,OCI-P5x (serous),3,66.7 (active)
PLK3,Rucaparib,OCI-C5x (clear cell),1,75.9 (active)
PLK3,Rucaparib,OCI-C5x (clear cell),2,77.5 (active)
PLK3,Rucaparib,OCI-C5x (clear cell),3,51.5 (active)
PLK3,Rucaparib,OCI-P5x (serous),1,117
PLK3,Rucaparib,OCI-P5x (serous),2,130
PLK3,Rucaparib,OCI-P5x (serous),3,99.7
PLK3,Vehicle,OCI-C5x (clear cell),1,74.6 (active)
PLK3,Vehicle,OCI-C5x (clear cell),2,71.5 (active)
PLK3,Vehicle,OCI-C5x (clear cell),3,71.6 (active)
PLK3,Vehicle,OCI-P5x (serous),1,91.7
PLK3,Vehicle,OCI-P5x (serous),2,97
PLK3,Vehicle,OCI-P5x (serous),3,104

Copied from the list.
ENPP3, rucaparib or vehicle Rucaparib, cell line OCI-C5x (clear cell), technical replicate 3, viability, normalised (%) = 48.1 (active)
For “viability, normalised (%)”, ENPP3, rucaparib or vehicle Rucaparib, cell line OCI-C5x (clear cell), technical replicate 2 reads 55.8 (active)
ENPP3, rucaparib or vehicle Rucaparib, cell line OCI-C5x (clear cell), technical replicate 1, viability, normalised (%): 55.9 (active)
Under “viability, normalised (%)”, PLK3, rucaparib or vehicle Vehicle, cell line OCI-P5x (serous), technical replicate 3 has 104

Continued:
target,rucaparib or vehicle,cell line,technical replicate,"viability, normalised (%)"
SFMBT2,Rucaparib,OCI-C5x (clear cell),1,45.9 (active)
SFMBT2,Rucaparib,OCI-C5x (clear cell),2,37.1 (active)
SFMBT2,Rucaparib,OCI-C5x (clear cell),3,39.8 (active)
SFMBT2,Rucaparib,OCI-P5x (serous),1,55.4 (active)
SFMBT2,Rucaparib,OCI-P5x (serous),2,51.7 (active)
SFMBT2,Rucaparib,OCI-P5x (serous),3,37.9 (active)
SFMBT2,Vehicle,OCI-C5x (clear cell),1,39.4 (active)
SFMBT2,Vehicle,OCI-C5x (clear cell),2,37.3 (active)
SFMBT2,Vehicle,OCI-C5x (clear cell),3,45.2 (active)
SFMBT2,Vehicle,OCI-P5x (serous),1,51.5 (active)
SFMBT2,Vehicle,OCI-P5x (serous),2,61.2 (active)
SFMBT2,Vehicle,OCI-P5x (serous),3,142
NHERF1,Rucaparib,OCI-C5x (clear cell),1,33.2 (active)
NHERF1,Rucaparib,OCI-C5x (clear cell),2,19.6 (active)
NHERF1,Rucaparib,OCI-C5x (clear cell),3,28 (active)
NHERF1,Rucaparib,OCI-P5x (serous),1,38 (active)
NHERF1,Rucaparib,OCI-P5x (serous),2,46 (active)
NHERF1,Rucaparib,OCI-P5x (serous),3,47 (active)
NHERF1,Vehicle,OCI-C5x (clear cell),1,22.5 (active)
NHERF1,Vehicle,OCI-C5x (clear cell),2,17.1 (active)
NHERF1,Vehicle,OCI-C5x (clear cell),3,24.8 (active)
NHERF1,Vehicle,OCI-P5x (serous),1,46.1 (active)
NHERF1,Vehicle,OCI-P5x (serous),2,43.2 (active)
NHERF1,Vehicle,OCI-P5x (serous),3,45.3 (active)
